In paper PMC3124540, “A Minimum of Three Motifs Is Essential for Optimal Binding of Pseudomurein Cell Wall-Binding Domain of Methanothermobacter thermautotrophicus” (PLoS ONE, 2011) one finds binding data, which are given here for one molecule.

This experiment has as its target three pseudomurein binding motifs with C-terminal ten-Histidine tag (3P-His10), the PMB domain of MTH719 (Methanothermobacter thermautotrophicus) (UniProt O26815). Briefly: SEC; Superdex 200 10/300 GL, room temperature, 50 mM NaH2PO4, 150 mM NaCl, pH 9.0; calibrated with globular proteins; both purified. In general terms: SEC sorts molecules by how far they enter the pores of the column.

Results are given in words; binding and its absence hold for the method and conditions named. Tags and fused reporters may be left off the sequences shown.

B1: three pseudomurein binding motifs with C-terminal ten-Histidine tag (3P-His10), the PMB domain of MTH719 (domain or fragment, Methanothermobacter thermautotrophicus)
chain: MGGGFAASVKISVRQLTDAASWVRAYYGRYGRLPGKVTISGHGYSMAQFLYLLCRATVNINAGNVAPISVKSVASAPASGGWYRHGRLYRSSYVRVAKNILSFIDSRGRAPNYAITGLGRIPFQRLVYMYSKIIKFYGTNKRLPNYVTI
notes: short N-terminal peptide region resulting from the cloning procedure (LIC); also called PMB domain 3P-His10; 3P-His10 PMB domain; source: E. coli Rosetta gami 2 (pBADcLIC, arabinose induced), purified (Ni-NTA); not shown: His10, C-terminal, kept
As for B1, the binding entry is reported as “no binding (condition: at pH 9.0)”.
